Results reported in patent US5147794.
The exact form of at least one protein or probe is not confirmed.

Tests used:
Test in all cases: enzyme reaction in vitro
[1] = system: KasI restriction endonuclease (native) (Kluyvera ascorbata); conditions: purified native protein
[2] = system: KasI restriction endonuclease (recombinant) (Kluyvera ascorbata); conditions: HindIII-cut lambda DNA; 10 mM Tris pH 7.5, 10 mM Mg, 1 mM DTT; 95% of ligated fragments recut; purified recombinant protein
[3] = system: NarI restriction endonuclease; conditions: isoschizomer of KasI used for comparison; 37 C

In the case of “GGCGCC (double strand) [KasI recognition site (lambda DNA)]”, the “activity on this sequence” value ([1]; activity detected in K. ascorbata supernatant, 50 mM NaCl, 10 mM Tris, 10 mM MgCl2, 37 C) is reported as “active” and the “activity on this sequence” value [2] is reported as “active”.

For “GGCGCC (double strand) [KasI/NarI site in pUC19]”, the “activity on this sequence” value [3] was “active”.

With “GGCGCC (double strand) [M13mp18 DNA (KasI site)]” the “activity on this sequence” value ([1]; one cleavage position) was “active”.

In the case of “GGCGCC (double strand) [PhiX174 DNA, printed PhiX172 (KasI sites)]”, the “activity on this sequence” value ([1]; two cleavage positions) is reported as “active”.

With “GGCGCC (double strand) [T7 DNA (KasI sites)]” the “activity on this sequence” value ([1]; two cleavage positions (abstract), 50 mM NaCl, 10 mM Tris pH 7.4, 10 mM MgCl2, 37 C) was “active”.
